In US10080751B2, “Systems and methods for treating bacterial infection” (priority 2016, dated 2018):
For at least one compound, name, drawing or mass did not settle the structure.

Test system: common Gram-positive and Gram-negative respiratory bacteria
Assay: Pulmonary surfactant interaction, overall effect on MIC and MICRZ
Format: cell-based
Conditions: 2.5% (v/v) BPS, all tested strains or isolates
Description: Antibacterial susceptibility testing was measured by JMI Labs (North Liberty, Iowa, USA). […] These clinical isolates were collected from US (n=4), Mexico (n=2), and Italy (n=1). Susceptibility testing was performed by broth microdilution in accordance with the Clinical and Laboratory and Standards Institute (CLSI) guidelines M07-A10 (2015) and the standard operating procedures at JMI laboratories. Minimum inhibitory concentrations (MICs) were based on CLSI criteria (2015). There are no published breakpoints for iclaprim. E. coli, K. pneumoniae, M. catarrhalis, E. faecalis, and S. aureus were tested in cation-adjusted Mueller-Hinton broth (CA-MHB). […]
Because bovine pulmonary surfactant can introduce cloudiness to the MIC testing media, antimicrobial growth inhibition was also evaluated using the colorimetric metabolic indicator resazurin (Camlab Ltd., Cambridge, UK). […] Growth inhibition was then evaluated as a visible color change from blue (no growth) to pink (robust growth) and recorded as a MICRZ value.
The MICs of iclaprim, levofloxacin, and daptomycin were determined against Gram-positive and Gram-negative isolates.
A new vial of bovine pulmonary surfactant (BPS; Survanta®; Abbott Laboratories, Columbus, Ohio) was utilized for each independent experiment. […] MICs of daptomycin were determined in CAMHB with the Ca^2+ content adjusted to 50 mg/L. […]

C[C@H]1COc2c(N3CCN(C)CC3)c(F)cc3c(=O)c(C(=O)O)cn1c23 [Levofloxacin]
effect of BPS on the MIC and MICRZ values: little or no effect
